Measured values reported in doi:10.1101/2021.03.12.435139.
The exact form of at least one protein or probe is not confirmed. No signal at the amounts used counts as a negative. Where a protein sequence is shown, tags need not be part of it.

Target: T1, PPR domain of POLRMT (Drosophila melanogaster) (UniProt Q9VPW4)
T1 sequence (looked up): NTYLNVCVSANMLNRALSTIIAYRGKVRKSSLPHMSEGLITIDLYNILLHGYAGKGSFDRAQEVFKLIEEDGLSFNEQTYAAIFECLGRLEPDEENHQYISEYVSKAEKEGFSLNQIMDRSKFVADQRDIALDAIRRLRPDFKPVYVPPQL
Experiment: EMSA
Conditions: 50 nM probe, 0-1 µM PPR; residues 314-464

“GTAAAATACTTTATATATAGAGCTTAAATC (double strand) [dsDNA EMSA probe]”: no binding.
